Literature values in patent US11702469B2, “Recombinant EGFL7, EGFL7 antibodies, and uses thereof” (Ohio State Innovation Foundation, priority 2017, dated 2023).
At least one structure is not confirmed: it was looked up by name or label, or the drawing left a doubt.

Tested on: FLT3-ITD AML
Conditions: doses ≥80 mg/d, cited from earlier work

SMILES: CCc1nc(C(N)=O)c(Nc2ccc(N3CCC(N4CCN(C)CC4)CC3)c(OC)c2)nc1NC1CCOCC1 [Gilteritinib]
- OS (vs historic controls): longer OS than historic controls
- overall response rate (patients with FLT3-ITD AML): 52%
